# Experimental data: paper doi:10.1101/2020.08.18.255471
# Results are given in words; binding and its absence hold for the method and conditions named. Binding seen in cells or lysates may run through a third protein. Some entries that bind do so weakly or less than the wild type.
# T1: LMO2, mouse (mouse (endogenous in ES cell-derived Flk-1+ cells and PUER cells)) (UniProt P25801)
# T1 sequence: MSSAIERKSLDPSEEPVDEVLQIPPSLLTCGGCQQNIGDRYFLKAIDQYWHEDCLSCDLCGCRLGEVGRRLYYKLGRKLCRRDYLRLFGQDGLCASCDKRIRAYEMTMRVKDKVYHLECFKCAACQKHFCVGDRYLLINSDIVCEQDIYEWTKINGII
# Tests used:
# [1] = target: T1, LMO2, mouse (mouse (endogenous in ES cell-derived Flk-1+ cells and PUER cells)); test: co-IP
# [2] = target: T1, LMO2, mouse (mouse (endogenous in ES cell-derived Flk-1+ cells and PUER cells)); test: proximity ligation
binder,measurement,setting,value
"PHF6, mouse (protein, UniProt Q9D4J7 1-364) MSSSIEQKKGSTRQRKCGFCKSNRDKECGQLLISENQKVAAHHKCMLFSSALVSSHSDNESLGGFSIEDVQKEIKRGTKLMCSLCHCPGATIGCDVKTCHRTYHYHCALHDKAQIREKPSQGIYMVYCRKHKKTAHNSEADLEESFNEHELEPSSPKTKKKSRKGRPRKTNLKGLPEDSRSTSSHGTDEMESSSYRDRSPHRSSPNDTRPKCGFCHVGEEENEARGKLHIFNAKKAAAHYKCMLFSSGTVQLTTTSRAEFGDFDIKTVLQEIKRGKRMKCTLCSQPGATIGCEIKACVKTYHYHCGVQDKAKYIENMSRGIYKLYCKNHSGNDERDEEDEERESKSRGRVAIDQQLTQQQLNGN",binding,[1],binds
same,binding,[2],binds
